Measured values published in paper PMC8102522.
Results are given in words; binding and its absence hold for the method and conditions named. Binding seen in cells or lysates may run through a third protein. Some results given as binding are weak or reduced against the parent protein; the word gives no strength. Each block holds one molecule with its values, some of them ahead of it.

Protein sequences, listed by entry. Tags and fused reporters are not part of them. Residues count along the entry.
UniProt O00206, residues 24-839: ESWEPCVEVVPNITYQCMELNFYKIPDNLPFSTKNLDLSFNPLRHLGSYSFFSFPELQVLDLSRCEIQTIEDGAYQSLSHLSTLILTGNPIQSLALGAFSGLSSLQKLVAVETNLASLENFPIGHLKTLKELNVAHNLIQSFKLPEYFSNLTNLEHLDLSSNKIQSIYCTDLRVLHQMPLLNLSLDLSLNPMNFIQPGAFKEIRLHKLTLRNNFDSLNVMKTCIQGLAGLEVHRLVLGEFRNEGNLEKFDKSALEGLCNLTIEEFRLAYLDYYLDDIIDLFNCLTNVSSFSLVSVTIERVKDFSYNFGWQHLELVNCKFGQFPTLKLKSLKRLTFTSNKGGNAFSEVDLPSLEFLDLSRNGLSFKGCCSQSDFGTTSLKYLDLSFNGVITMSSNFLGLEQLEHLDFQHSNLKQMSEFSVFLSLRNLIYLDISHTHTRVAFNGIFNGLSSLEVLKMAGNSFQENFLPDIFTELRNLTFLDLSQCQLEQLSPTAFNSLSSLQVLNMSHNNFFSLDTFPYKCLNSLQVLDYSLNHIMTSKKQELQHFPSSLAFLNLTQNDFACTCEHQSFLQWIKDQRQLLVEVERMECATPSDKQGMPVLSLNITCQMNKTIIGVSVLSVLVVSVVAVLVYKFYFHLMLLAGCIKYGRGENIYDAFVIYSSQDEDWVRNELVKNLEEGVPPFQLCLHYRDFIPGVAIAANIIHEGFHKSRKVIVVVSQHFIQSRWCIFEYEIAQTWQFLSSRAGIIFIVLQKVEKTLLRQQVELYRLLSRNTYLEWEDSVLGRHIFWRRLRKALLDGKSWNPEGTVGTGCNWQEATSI
UniProt Q99836: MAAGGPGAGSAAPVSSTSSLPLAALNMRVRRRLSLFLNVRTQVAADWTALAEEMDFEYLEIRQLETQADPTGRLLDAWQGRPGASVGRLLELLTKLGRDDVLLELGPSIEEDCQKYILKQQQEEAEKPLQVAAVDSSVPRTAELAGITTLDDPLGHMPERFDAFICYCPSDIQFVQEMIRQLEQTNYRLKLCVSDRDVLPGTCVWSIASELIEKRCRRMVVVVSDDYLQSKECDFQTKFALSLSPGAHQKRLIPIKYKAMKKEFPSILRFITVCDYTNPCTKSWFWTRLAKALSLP

Columns and labels:
[1] = molecular target: Toll-like receptor 4 (human (endogenous in MIO-M1)) (UniProt O00206); assay: co-IP; MIO-M1 cells exposed to HOG-LDL for 15 min; extracts incubated with TLR4 antibody overnight at 4 °C, protein G-Sepharose beads 2 h at 4 °C, immunoblot of coprecipitated proteins; also after siMD2 or negative control siRNA (Fig. 4b, 4c, 4h)
[2] = molecular target: T1, myeloid differentiation protein 2 (human (endogenous in MIO-M1)) (UniProt Q9Y6Y9); assay: co-IP; MIO-M1 cells exposed to HOG-LDL for 15 min; extracts incubated with MD2 antibody overnight at 4 °C, protein G-Sepharose beads 2 h at 4 °C, immunoblot of coprecipitated proteins; also after siNOX4 or negative control siRNA and with or without apocynin (Fig. 4a, 5b)
T1 sequence: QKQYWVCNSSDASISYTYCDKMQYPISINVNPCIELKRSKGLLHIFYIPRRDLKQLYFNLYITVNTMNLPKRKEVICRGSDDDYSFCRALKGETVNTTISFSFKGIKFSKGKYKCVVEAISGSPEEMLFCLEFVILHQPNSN

binding [1]: binds
Molecule: myeloid differentiation primary response gene 88 (from UniProt Q99836 1-296)

binding [2]: binds
Molecule: Toll-like receptor 4 (from UniProt O00206 24-839)

binding [2]: binds
binding [1]: binds
B1: NADPH oxidase-4 (enzyme, UniProt Q9NPH5 1-578)
chain: MAVSWRSWLANEGVKHLCLFIWLSMNVLLFWKTFLLYNQGPEYHYLHQMLGLGLCLSRASASVLNLNCSLILLPMCRTLLAYLRGSQKVPSRRTRRLLDKSRTFHITCGVTICIFSGVHVAAHLVNALNFSVNYSEDFVELNAARYRDEDPRKLLFTTVPGLTGVCMVVVLFLMITASTYAIRVSNYDIFWYTHNLFFVFYMLLTLHVSGGLLKYQTNLDTHPPGCISLNRTSSQNISLPEYFSEHFHEPFPEGFSKPAEFTQHKFVKICMEEPRFQANFPQTWLWISGPLCLYCAERLYRYIRSNKPVTIISVMSHPSDVMEIRMVKENFKARPGQYITLHCPSVSALENHPFTLTMCPTETKATFGVHLKIVGDWTERFRDLLLPPSSQDSEILPFIQSRNYPKLYIDGPFGSPFEESLNYEVSLCVAGGIGVTPFASILNTLLDDWKPYKLRRLYFIWVCRDIQSFRWFADLLCMLHNKFWQENRPDYVNIQLYLSQTDGIQKIIGEKYHALNSRLFIGRPRWKLLFDEIAKYNRGKTVGVFCCGPNSLSKTLHKLSNQNNSYGTRFEYNKESFS

binding [1]: binds
B2: myeloid differentiation protein 2 (protein, UniProt Q9Y6Y9 19-160)
chain: T1 sequence
